We go through 25 molecules from PubChem BioAssay AID328 (DTP/NCI, 2004).

SMILES strings stand for the structures. The list is a part of this screen's results and no random one: it is rich in T/C values a quarter to a half above the control, in often repeated tests (any T/C) and in doses without a T/C. Further doses and runs are listed elsewhere. T/C is the treated group as % of the vehicle group. Some doses have a count of surviving animals in place of a T/C: the source holds a T/C of zero for them, seemingly a mark for toxic or unscored doses. Some doses without a T/C left all or most animals alive at the check, yet need not have been tolerated: survival well below the control is almost never listed, so the zero probably covers shortened survival too. Counts of survivors are from the toxicity check (mostly the fifth day) where no day follows; animals may have died later. Schedules are NCI's codes, taken here to give the interval after Q, in days (D) or hours (H), and the number of doses after X. For survival time, the PubChem record calls one and a half times the control and up active, and a quarter to a half above the control has no call in these data; cut-offs in other NCI protocols can differ. Some doses were run more than once; the values are given in rising order. Some T/C values are followed by the survivors on the day toxicity was checked, most often the fifth; without a count, all were alive then.

This experiment concerns BDF1 mice, P388 leukemia ip, median survival T/C. The experiment in a line: NCI In Vivo Anticancer Drug Screen. Data for tumor model P388 Leukemia (intraperitoneal) in B6D2F1 (BDF1) mice. To be noted: T/C endpoint: median survival time, higher T/C = longer survival. A digest of the protocol:
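Steps: implant the tumour, treat one group with compound and another with vehicle, record survival, then divide treated by control.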

Where [1] appears, read: dose: 50.0 mg/kg/injection, schedule: Q01DX009 (ip), vehicle: saline.
[2] abbreviates: dose: 100.0 mg/kg/injection, schedule: Q01DX009 (ip), vehicle: saline.
Where [3] appears, read: dose: 200.0 mg/kg/injection, schedule: Q01DX009 (ip), vehicle: saline.
Where [4] appears, read: dose: 200.0 mg/kg/injection, schedule: Q01DX009 (ip), vehicle: saline with Tween-80.
[5] abbreviates: dose: 400.0 mg/kg/injection, schedule: Q04DX003 (ip), vehicle: saline with Tween-80.
Where [6] appears, read: dose: 50.0 mg/kg/injection, schedule: Q01DX009 (ip), vehicle: saline with Tween-80.
Setting [7] is: dose: 400.0 mg/kg/injection, schedule: Q01DX009 (ip), vehicle: saline with Tween-80.
[8] abbreviates: dose: 400.0 mg/kg/injection, schedule: Q01DX009 (ip), vehicle: Klucel (hydroxypropylcellulose) (HPC).

For `C=C1C(=O)O[C@@H]2[C@H](O)[C@@H](C)[C@@H]3C=CC(=O)[C@@]3(C)[C@H](OC(=O)C=C(C)C)[C@H]12`, the T/C was 129 % of control (dose: 3.12 mg/kg/injection, schedule: Q01DX009 (ip), vehicle: saline); 131 % of control (dose: 6.25 mg/kg/injection, schedule: Q01DX009 (ip), vehicle: saline); 137 % of control (dose: 12.5 mg/kg/injection, schedule: Q01DX009 (ip), vehicle: saline). The survivor count reads like this: (dose: 25.0 mg/kg/injection, schedule: Q01DX009 (ip), vehicle: saline) 6 of 6; under setting [1], 0 of 6; under setting [2], 0 of 6; under setting [3], 0 of 6.

As to `COc1ccccc1N1C(=O)CC(Sc2ccccc2N)C1=O` (centres undefined), the T/C under setting [4] is 133 % of control.

`CC(=O)OC1CCC2(C)CCCC(O)C2(O)C1` (centres undefined): the survivor count under setting [4] is 6 of 6.

As for `O=c1[nH]nc(CF)c(=O)[nH]1`, the T/C by setting is: (dose: 6.0 mg/kg/injection, schedule: Q01DX009 (ip), vehicle: saline) 133 and 140 % of control; (dose: 12.0 mg/kg/injection, schedule: Q01DX009 (ip), vehicle: saline) 127 and 133 % of control. For the same molecule, the survivor count is given as 6 of 6 (dose: 24.0 mg/kg/injection, schedule: Q01DX009 (ip), vehicle: saline) and 6 of 6 (dose: 48.0 mg/kg/injection, schedule: Q01DX009 (ip), vehicle: saline).

Turning to `CC1(NC(=O)N(CCCl)N=O)CCCC1`, the survivor count under setting [5] is on record as 2 of 6.

As to `COc1ccc(/C(C#N)=C\c2ccnc3ccccc23)cc1`, for the setting “dose: 100.0 mg/kg/injection, schedule: Q01DX009 (ip), vehicle: other”, the survivor count was 3 of 4.

Take `O=C1C(N2CCOCC2)=Cc2cccc3cccc1c23`: the survivor count was 5 of 6 under setting [6] and 1 of 6 under setting [7].

As for `CC([OH2+])CNCCN.CC([OH2+])CNCCN.[Cu+2].[O-][Cl+3]([O-])([O-])[O-]` (centres undefined), the survivor count under setting [1] is listed as 1 of 6, the survivor count under setting [2] is on record as 0 of 6 and the survivor count under setting [3] is listed as 0 of 6.

For the molecule `CN(N/C=N/S(=O)(=O)c1ccccc1)c1ccccc1`, the survivor count under setting [4] is recorded as 6 of 6.

In the case of `Oc1ccccc1C=NCCN1CC1.Oc1ccccc1C=NCCN1CC1.[Ni+2]`, the T/C (dose: 25.0 mg/kg/injection, schedule: Q01DX009 (ip), vehicle: Klucel (hydroxypropylcellulose) (HPC)) was 147 % of control and the T/C (dose: 50.0 mg/kg/injection, schedule: Q04DX003 (ip), vehicle: saline sonified) is 146 % of control. Besides, the survivor count is listed as 2 of 3 (dose: 25.0 mg/kg/injection, schedule: Q04DX003 (ip), vehicle: Klucel (hydroxypropylcellulose) (HPC)); 0 of 3 (dose: 50.0 mg/kg/injection, schedule: Q01DX009 (ip), vehicle: Klucel (hydroxypropylcellulose) (HPC)); 0 of 3 (dose: 100.0 mg/kg/injection, schedule: Q04DX003 (ip), vehicle: Klucel (hydroxypropylcellulose) (HPC)); 1 of 6 (dose: 100.0 mg/kg/injection, schedule: Q04DX003 (ip), vehicle: saline sonified).

For `Cc1ccc(CNc2cccnc2)cc1`, the survivor count under setting [4] is recorded as 5 of 6.

For `Cc1ccc2c(C)c3c(ccc4ccccc43)c[n+]2c1`, the T/C (dose: 5.0 mg/kg/injection, schedule: Q01DX009 (ip), vehicle: Klucel (hydroxypropylcellulose) (HPC)) is 140 % of control and the T/C (dose: 5.0 mg/kg/injection, schedule: Q01DX009 (ip), vehicle: saline) is 130 % of control. The survivor count (dose: 10.0 mg/kg/injection, schedule: Q01DX009 (ip), vehicle: Klucel (hydroxypropylcellulose) (HPC)) is recorded as 5 of 6 and the survivor count (dose: 20.0 mg/kg/injection, schedule: Q01DX009 (ip), vehicle: Klucel (hydroxypropylcellulose) (HPC)) is listed as 1 of 6.

Take `N#Cc1ncc(C(Cl)(Cl)Cl)nc1Cl`: the T/C under setting [4] was 125 % of control. The survivor count by setting is: (dose: 200.0 mg/kg/injection, schedule: Q04DX003 (ip), vehicle: saline with Tween-80) 5 of 6; under setting [5], 0 of 6.

For the molecule `COc1ccc(C2=CC(=O)C(c3ccc(OC)cc3)=CC2=O)cc1`, the survivor count runs as follows: (dose: 10.0 mg/kg/injection, schedule: Q01DX009 (ip), vehicle: gum acacia) 6 of 6; (dose: 20.0 mg/kg/injection, schedule: Q01DX009 (ip), vehicle: gum acacia) 6 of 6.

In the case of `S=c1nc[nH]c2c1ncn2C1CCCC1`, the survivor count under setting [7] is given as 5 of 6.

Regarding `CCOC(=O)CCC[P+](c1ccccc1)(c1ccccc1)c1ccccc1`, the T/C is 140 % of control (dose: 8.8 mg/kg/injection, schedule: Q01DX009 (ip), vehicle: saline with Tween-80); 139 and 142 % of control (dose: 22.0 mg/kg/injection, schedule: Q01DX009 (ip), vehicle: saline with Tween-80); 136 and 143 % of control (dose: 33.0 mg/kg/injection, schedule: Q01DX009 (ip), vehicle: saline with Tween-80); 127 % of control (dose: 40.0 mg/kg/injection, schedule: Q01DX009 (ip), vehicle: saline with Tween-80); 131 and 142 % of control under setting [6]; 130 % of control [5 of 6 alive] (dose: 75.0 mg/kg/injection, schedule: Q01DX009 (ip), vehicle: saline with Tween-80). Further, under “dose: 80.0 mg/kg/injection, schedule: Q01DX009 (ip), vehicle: saline with Tween-80”, the T/C was 126 % of control. The survivor count is, setting by setting: under setting [4], 4 of 6; under setting [5], 4 of 6.

For the molecule `O=C1C(=O)c2ccccc2-c2ccccc21.O=C1C(=O)c2ccccc2-c2ccccc21.[Hg]`, the T/C (dose: 6.0 mg/kg/injection, schedule: Q01DX009 (ip), vehicle: saline with Tween-80) is 127 % of control. In addition, the survivor count (dose: 12.0 mg/kg/injection, schedule: Q01DX009 (ip), vehicle: saline with Tween-80) is reported as 5 of 6.

`COc1ccc(Cc2nccc3c(OC)c(OC)ccc23)cc1OC`: the T/C under setting [2] was 128 % of control. In addition, where the note is “dose: 400.0 mg/kg/injection, schedule: Q04DX003 (ip), vehicle: saline”, the survivor count is recorded as 1 of 6.

In the case of `CCCCCCCCCCCCCCCCCC(=O)[O][Sn]([CH2]CCC)([CH2]CCC)[O]C(=O)CCCCCCCCCCCCCCCCC`, for the setting “dose: 6.25 mg/kg/injection, schedule: Q04DX003 (ip), vehicle: other”, the T/C is 129 % of control. Further, the survivor count (dose: 25.0 mg/kg/injection, schedule: Q04DX003 (ip), vehicle: other) is 2 of 6.

Turning to `CN(C=O)C(C(=O)Nc1cccc2c(OC(=O)C(N(C)C=O)(N(C)C=O)N(C)C=O)c(N=Nc3ccc(S(=O)(=O)Nc4nccs4)cc3)cc(N=Nc3ccc(S(=O)(=O)Nc4nccs4)cc3)c12)(N(C)C=O)N(C)C=O` (tested in a mixture with another compound), the T/C runs as follows: (dose: 50.0 mg/kg/injection, schedule: Q01DX005 (ip), vehicle: saline with Tween-80) 136 % of control; (dose: 100.0 mg/kg/injection, schedule: Q01DX005 (ip), vehicle: saline with Tween-80) 134 % of control; (dose: 200.0 mg/kg/injection, schedule: Q01DX005 (ip), vehicle: saline with Tween-80) 137 % of control.

For `COc1ccc(Cl)cc1N`, the survivor count under setting [4] is given as 0 of 6.

As for `C[C@]12CC[C@@H]3c4ccc(O)cc4CC[C@H]3[C@@H]1CCC(=O)O2`, the survivor count under setting [8] is reported as 6 of 6.

For `Cc1cc(C)n(CO)n1`, under “dose: 200.0 mg/kg/injection, schedule: Q01DX009 (ip), vehicle: Klucel (hydroxypropylcellulose) (HPC)”, the T/C was 140 % of control. The survivor count is recorded as 6 of 6 under setting [8] and 4 of 6 (dose: 400.0 mg/kg/injection, schedule: Q04DX003 (ip), vehicle: Klucel (hydroxypropylcellulose) (HPC)).

Take `CCCCCCCCN1CCCNCC1`: the survivor count is, setting by setting: under setting [1], 5 of 6; under setting [2], 0 of 6.

With `CCCCCCCCCCCC(=O)N(C)C`, under setting [8], the survivor count is given as 6 of 6.
